The target in data set [1] is Transferrin receptor 1 (TfR1, CD71), endogenous on cells (Homo sapiens) (UniProt P02786). As to the kind of experiment: flow cytometry. Conditions: protein on the cell surface.
In data set [2] the target is Transferrin receptor 1 (TfR1, CD71), Jurkat membrane extract (Homo sapiens) (UniProt P02786). As to the kind of experiment: pull-down. The note with it: protein in an extract, 5'-Cy5 or 5'-biotin, single-stranded DNA.
For data set [3], the target named is Transferrin receptor 1 (TfR1, CD71), endogenous on cells (Homo sapiens) (UniProt P02786). As to the kind of experiment: competition with a labelled probe. The note with it: not by antibody CY1G4, protein on the cell surface, 5'-Cy5 or 5'-biotin, single-stranded DNA.
In data set [4] the target is Cellular nucleic acid-binding protein (CNBP, ZNF9), Jurkat membrane extract (Homo sapiens) (UniProt P62633). As to the kind of experiment: pull-down. Conditions: mass spectrometry of band f, 20% coverage; protein in an extract; label: 5'-FAM (with added 5' T), 5'-Cy5 or 5'-biotin; single-stranded DNA; variant of JBA8.1.
[5] abbreviates: Jurkat and H9 cells, all binding lost, single-stranded DNA, variant of tJBA8.1.

Protein sequences, listed by entry. Tags and fused reporters are not part of them. Residues count along the entry.
UniProt P62633, 2-177: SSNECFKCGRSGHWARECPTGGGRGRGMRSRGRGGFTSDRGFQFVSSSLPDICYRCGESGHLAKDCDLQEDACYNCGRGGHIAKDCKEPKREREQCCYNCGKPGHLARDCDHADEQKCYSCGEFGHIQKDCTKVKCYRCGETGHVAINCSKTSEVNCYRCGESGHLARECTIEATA

Where cells or extracts were used, other partners may take part. For some assays here: No signal at the amounts used counts as a negative. For some assays here: Construct, isoform or probe ends are uncertain for at least one entry.

In the case of “GCAGCAGCGTAAAGGGAGTGTTTGTGCGGTGTGGAGTGCGCGTGCTGCTGC [tJBA8.1 GGGAG]”, in data set [1] (setting [5]), the binding result is “no binding”.
As for “GCAGCAGCGTAAAGGGGGTGTTTGTGCGGTGTGGAGTGCGCGCGCTGCTGCGCAGAAGAAGAAGAAGAAGAAGAAGAAGAACG / CGTTCTTCTTCTTCTTCTTCTTCTTCTTCTGC [tJBA8.26.DLO annealed to fluorescein complement]”, the binding result in data set [1] (Raji cells, binding at 4 C and internalization at 37 C, label: fluorescein on complementary strand, folded or branched DNA) was “binds”.
Consider “ACTCATAGGGTTAGGGGCTGCTGGCCAGATACTCAGATGGTAGGGTTACTATGAGC [XQ-2d]”, for which the binding result is given as “binds” in data set [2] (Western blot, HFE co-precipitated with TfR1, label: 5'-FAM) and “binds” in data set [3] (competed by holo-transferrin (over 90% on H9), label: 5'-FAM).
Consider “GCAGCAGCGTAAAGGAGGTGTTTGTGCGGTGTGGAGTGCGCGTGCTGCTGC [tJBA8.1 GGAGG]”, for which the binding result in data set [1] (setting [5]) was “no binding”.
In the case of “GCAGCAGCGTAAAGGGGGTGTTTGTGCGGTGTGGAGTGCGCGTGCTGCTGC [tJBA8.1]”, the binding result in data set [4] was “binds”; in data set [2] (mass spectrometry 58-62% coverage, label: 5'-FAM (with added 5' T), variant of JBA8.1), “binds”; in data set [3] (competed by holo-transferrin: about 50% on Jurkat, over 90% on H9, label: 5'-FAM (with added 5' T), variant of JBA8.1) it was “binds”.
In the case of “GCAGCAGCGTAAAGGAAGTGTTTGTGCGGTGTGGAGTGCGCGCGCTGCTGCGCAGAAGAAGAAGAAGAAGAAGAAGAAGAACG / CGTTCTTCTTCTTCTTCTTCTTCTTCTTCTGC [mtJBA8.26.DLO annealed to fluorescein complement]”, the binding result in data set [1] (Raji cells, minimal association, label: fluorescein on complementary strand, folded or branched DNA) is listed as “no binding”.
In the case of “GCAGCAGCGTAAAGGGGCTGTTTGTGCGGTGTGGAGTGCGCGTGCTGCTGC [tJBA8.1 GGGGC]”, the binding result in data set [1] (setting [5]) is given as “no binding”.
Regarding “ATCCAGAGTGACGCAGCAAATTCCAAACTCGAGTAAGCGTAGAGCCTCTCATCGCCTCAATAATGGACACGGTGGCTTAGT [RANL]”, the binding result in data set [1] (Jurkat cells, control, label: 5'-FAM, 5'-Cy5 or 5'-biotin, single-stranded DNA) is reported as “no binding”.

The values above are taken from patent publication US12760268.
